Data reported in patent US8216800B2, “Substrates for detecting peptidase activity and methods using the substrates” (Biomerieux, priority 2007, dated 2012).
At least one structure is not confirmed: it was looked up by name or label, or the drawing left a doubt.

Test system: Salmonella Typhimurium NCTC 74
Experiment: Peptidase activity detection on Columbia agar containing substrate
Format: cell-based
Details: substrate 100 mg/l, 24 hours at 37° C.
Protocol: 40 mg of each substrate are dissolved in 4 ml of dimethylformamide (DMF). This solution is completely taken up in 400 ml of Columbia agar autoclaved beforehand and kept molten at 50° C. The final concentration for each substrate is therefore 100 mg/l. Each of the media is distributed into 90 mm Petri dishes in a proportion of 20 ml per dish.
18 microorganism strains derived from collections and belonging to various species of bacteria and of yeasts are inoculated onto these media by semi-quantitative isolation of 10 μl of a suspension at 0.5 McFarland diluted to 1/20. The media are incubated for 24 hours at 37° C., and then the colonies formed are examined visually under UV illumination at 360-365 nm.

Row | Compound | G: growth
1 | C[C@H](N)C(=O)Nc1ccccc1-c1nc2ccccc2n1CCc1ccccc1 [Substrate 14] | ++
2 | C[C@H](N)C(=O)Nc1cc2c(cc1-c1nc3ccccc3n1CCc1ccccc1)OCO2 [Substrate 16] | ++
